# From the supplement of paper PMC12889115
# The other results are listed elsewhere or left out. Values are raw readings; no control value is given beside them.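 Primary screen: polymyxin B was added at a level permeabilizing Salmonella outer membranes while sparing inner membranes. DMSO wells, both with and without polymyxin B, established maximum growth. Plate-to-plate variation meant each plate was ranked on its own, and the lowest-OD600 compounds were selected as hits.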
# Test system: Salmonella enterica serovar Typhimurium SL1344
# Assay: bacterial growth OD600 after 18 h with compound and polymyxin B; higher = more bacterial growth (less inhibition)
# Settings: 50 µM, Mueller-Hinton broth
Compound,bacterial growth OD600 (polymyxin B 1 µg/mL),bacterial growth OD600 (polymyxin B 0.75 µg/mL)
O=C(C1CCCC1)N1CCC2(CCCN(Cc3ccccc3F)C2=O)C1 (stereo unspecified),1.02,
COCCn1c(CN2CCCCO2)cnc1S(=O)(=O)C1CCCCCC1,0.707,
CC1(C)C[C@@H]2C[C@@](C)(CN2C(=O)c2cn(Cc3ccc(F)cc3Cl)nn2)C1,0.008,
CCOC(=O)N1CCN(C(=O)c2cc(Cn3nc(C)cc3C)[nH]n2)CC1,,0.831
O=C1CCCN1CC(=O)N1CCc2[nH]nc(-c3ccccc3F)c2C1,,0.814
CN(Cc1nc(Cc2ccccc2F)no1)CC1Cc2ccccc2O1 (stereo unspecified),0.881,
CN(CCc1ccccc1)C(=O)c1nc2sccn2c1CN1CCSCC1,0.75,
CSc1ncc(CN(C)CC2CCN(CCc3cccc(F)c3)CC2)cn1,0.935,
COc1cccc(OCc2nc(C(=O)NC3CCCCC3)co2)c1,0.939,
O=C(NC1CCCC1)c1ccc(N2CCC(NCc3ccc(Cl)s3)CC2)cc1,,0.664
O=C(C1CCCN(Cc2ccco2)C1)N1CCc2[nH]nc(-c3ccccc3F)c2C1 (stereo unspecified),,0.819
CC(NC(=O)c1csc2nc(-c3ccccc3)cn12)c1cnn(C)c1 (stereo unspecified),1.18,
O=C(CCc1nnc(-c2ccc3c(c2)OCO3)o1)N1CCCCCCC1,,0.964
c1cncc(-c2ncc3c(n2)CCCC3NC2CCOCC2)c1 (stereo unspecified),0.767,
COC(=O)[C@@H]1CCCN1C(=O)Cc1ccc(N2CCC(NCCc3ccco3)CC2)cc1,,0.877
COc1ccccc1OCC(=O)NCC1CCCN(C(=O)c2ccccc2SC)C1 (stereo unspecified),0.953,
COc1cc(CN2CCN(Cc3ccc(OC)c(C)c3C)C(CCO)C2)ccc1O (stereo unspecified),0.956,
COc1ccc(-c2nc(CN(C)Cc3nnc(C)o3)c(C)o2)c(OC)c1C,,0.81
COC(C(=O)NCc1c(C)ncc2c1CCN(C(=O)Cc1ccc(F)c(F)c1)C2)c1ccccc1 (stereo unspecified),,0.821
COc1ccc(-c2noc(CN3CCC(Sc4ccc(C)cc4)CC3)n2)cc1,0.811,
Cc1nc(-c2ccncc2)ncc1C(C)NC1CCN(C(C)C)CC1 (stereo unspecified),,0.835

# Record cards (already shown).
# O=C1CCCN1CC(=O)N1CCc2[nH]nc(-c3ccccc3F)c2C1 is entered as bacterial growth OD600 (polymyxin B 0.75 µg/mL): 0.814
# COc1cc(CN2CCN(Cc3ccc(OC)c(C)c3C)C(CCO)C2)ccc1O (stereo unspecified) is entered as bacterial growth OD600 (polymyxin B 1 µg/mL): 0.956
